Results deposited as PubChem BioAssay AID1259254 (NCATS, 2017).

- Purpose: 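Genome-wide screen for genes that prevent DNA re-replication in cancer cells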 (primary screen)
- Cells: human HCT116 colorectal cancer cells
- Reagents: single siRNA against human genes
- Time to read-out: 3 days
- Detection: 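Imaged Hoechst DNA stain sorts each cell into a cycle phase by DNA amount; per plate, G2 fraction set to 0% for non-targeting and 100% for GMNN siRNA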
- Direction: G2 robust z-score: higher = more G2 cells, more excess DNA replication
- Hit rule: 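An siRNA counts as active if its G2 robust z-score lies at least 5 MADs above the screen median; here such calls match roughly 38% of GMNN control or more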
In all, the deposit lists about 59,000 reagents; below is a random part of them. In the full data, about 1,550 (2.6%) got an active call. 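G2 share is only a proxy for re-replication; each gene was hit by three separate siRNAs, and active genes were retested.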 The numbers tell different reagents against one gene apart. Not all columns of the deposit are shown. No sequences are given here. The record does not give: the amount of reagent.

The first 8 entries, ahead of the listing:
gene symbol | siRNA no. | G2 robust z-score | activity call
ATP6V1G1 (GeneID 9550) | 1 | -0.404 | inactive
ATP6V1G1 (GeneID 9550) | 2 | -0.474 | inactive
ATP6V1G1 (GeneID 9550) | 3 | 8.27 | active
RBM15B (GeneID 29890) | 1 | -0.0512 | inactive
RBM15B (GeneID 29890) | 2 | -1.07 | inactive
RBM15B (GeneID 29890) | 3 | 3.71 | inactive
PRKG2 (GeneID 5593) | 1 | -0.932 | inactive
PRKG2 (GeneID 5593) | 2 | -1.27 | inactive

Results, repeating the preview:
gene symbol | siRNA no. | G2 robust z-score | activity call
ATP6V1G1 (GeneID 9550) | 1 | -0.404 | inactive
ATP6V1G1 (GeneID 9550) | 2 | -0.474 | inactive
ATP6V1G1 (GeneID 9550) | 3 | 8.27 | active
RBM15B (GeneID 29890) | 1 | -0.0512 | inactive
RBM15B (GeneID 29890) | 2 | -1.07 | inactive
RBM15B (GeneID 29890) | 3 | 3.71 | inactive
PRKG2 (GeneID 5593) | 1 | -0.932 | inactive
PRKG2 (GeneID 5593) | 2 | -1.27 | inactive
PRKG2 (GeneID 5593) | 3 | -0.553 | inactive
NLRP7 (GeneID 199713) | 1 | 0.632 | inactive
NLRP7 (GeneID 199713) | 2 | 3.04 | inactive
NLRP7 (GeneID 199713) | 3 | -0.634 | inactive
ANKRD6 (GeneID 22881) | 1 | -0.517 | inactive
ANKRD6 (GeneID 22881) | 2 | 1.85 | inactive
ANKRD6 (GeneID 22881) | 3 | 2.84 | inactive
SLAMF7 (GeneID 57823) | 1 | -0.27 | inactive
SLAMF7 (GeneID 57823) | 2 | -1.04 | inactive
SLAMF7 (GeneID 57823) | 3 | 1.32 | inactive
PITX3 (GeneID 5309) | 1 | -0.976 | inactive
PITX3 (GeneID 5309) | 2 | 2.61 | inactive
PITX3 (GeneID 5309) | 3 | 0.0943 | inactive
NR2E1 (GeneID 7101) | 1 | 0.245 | inactive
NR2E1 (GeneID 7101) | 2 | -0.374 | inactive
NR2E1 (GeneID 7101) | 3 | -0.568 | inactive
HPF1 (GeneID 54969) | 1 | -0.194 | inactive
HPF1 (GeneID 54969) | 2 | 1.58 | inactive
HPF1 (GeneID 54969) | 3 | -0.483 | inactive
CROCC (GeneID 9696) | 1 | 0.31 | inactive
CROCC (GeneID 9696) | 2 | -1.16 | inactive
CROCC (GeneID 9696) | 3 | 0.456 | inactive
AP3B2 (GeneID 8120) | 1 | 0.366 | inactive
AP3B2 (GeneID 8120) | 2 | -0.56 | inactive
AP3B2 (GeneID 8120) | 3 | -0.585 | inactive
P2RY1 (GeneID 5028) | 1 | 6.98 | active
P2RY1 (GeneID 5028) | 2 | -0.0825 | inactive
P2RY1 (GeneID 5028) | 3 | 1.19 | inactive
IFRD1 (GeneID 3475) | 1 | -1.4 | inactive
IFRD1 (GeneID 3475) | 2 | -0.219 | inactive
IFRD1 (GeneID 3475) | 3 | -0.135 | inactive
CTAGE15 (GeneID 441294) | 1 | -0.561 | inactive
CTAGE15 (GeneID 441294) | 2 | -0.407 | inactive
CTAGE15 (GeneID 441294) | 3 | -0.627 | inactive
UHRF2 (GeneID 115426) | 1 | 0.193 | inactive
UHRF2 (GeneID 115426) | 2 | -0.638 | inactive
UHRF2 (GeneID 115426) | 3 | -0.137 | inactive
EPB41L5 (GeneID 57669) | 1 | 0.669 | inactive
EPB41L5 (GeneID 57669) | 2 | 1.05 | inactive
EPB41L5 (GeneID 57669) | 3 | -0.568 | inactive
SYS1 (GeneID 90196) | 1 | 0.551 | inactive
SYS1 (GeneID 90196) | 2 | -0.269 | inactive
SYS1 (GeneID 90196) | 3 | -0.872 | inactive
PRC1 (GeneID 9055) | 1 | 4.17 | inactive
PRC1 (GeneID 9055) | 2 | 7.35 | active
PRC1 (GeneID 9055) | 3 | 11.9 | active
ZNF687 (GeneID 57592) | 1 | -0.453 | inactive
ZNF687 (GeneID 57592) | 2 | 0.00263 | inactive
ZNF687 (GeneID 57592) | 3 | -0.256 | inactive
TNFRSF4 (GeneID 7293) | 1 | 0.102 | inactive
TNFRSF4 (GeneID 7293) | 2 | -0.0746 | inactive
TNFRSF4 (GeneID 7293) | 3 | 0.949 | inactive
PEA15 (GeneID 8682) | 1 | 0.721 | inactive
PEA15 (GeneID 8682) | 2 | 3.19 | inactive
PEA15 (GeneID 8682) | 3 | -0.278 | inactive
CMTM6 (GeneID 54918) | 1 | 0.635 | inactive
CMTM6 (GeneID 54918) | 2 | 6.07 | active
CMTM6 (GeneID 54918) | 3 | 0.152 | inactive
LOC401957 (GeneID 401957) | 1 | -0.0916 | inactive
LOC401957 (GeneID 401957) | 2 | -0.554 | inactive
LOC401957 (GeneID 401957) | 3 | 0.854 | inactive
